# According to ChEMBL document CHEMBL4303122, “Identification of potential treatments for COVID-19 through artificial intelligence-enabled phenomic analysis of human cells infected with SARS-CoV-2” (2020):
# Whole data set: some 1,600 compounds, median “Hit score” near 0.13, cut for the highest 2% near 0.46. The list shows a part of the results.
# System: SARS-CoV-2
# Assay: Antiviral activity against SARS-CoV-2 (USA-WA1/2020 strain) measured by imaging in HRCE cells at MOI 0.4 after 96 hrs (reported as hit score from 0-1 for on-disease vs off-disease activity: scores >0.6 considered hits)
# Format: functional, Homo sapiens
row,SMILES,Hit score
1,C(=C\c1ccccc1)/CN1CCN(C(c2ccccc2)c2ccccc2)CC1 [CINNARIZINE],0.3702
2,COc1ccc(C(=O)N2CCCC2=O)cc1,0.178
3,CN1C2CCCC1CC(NC(=O)c1nn(C)c3ccccc13)C2.Cl (stereo not drawn) [GRANISETRON HYDROCHLORIDE],0.1701
4,CCN(CC)CC(=O)Oc1ccc(NC(C)=O)cc1 [PROPACETAMOL],0.2265
5,Cl.OC(CNCC(O)C1CCc2cc(F)ccc2O1)C1CCc2cc(F)ccc2O1 (stereo not drawn) [NEBIVOLOL HYDROCHLORIDE],0.4783
6,O=C(O)c1cc(/N=N/c2ccc(O)c(C(=O)O)c2)ccc1O [OLSALAZINE],0.0313
7,CC(=O)NCCCS(=O)(=O)O [ACAMPROSATE],0.1885
8,CNC(=O)c1cc(Oc2ccc(NC(=O)Nc3ccc(Cl)c(C(F)(F)F)c3)c(F)c2)ccn1 [REGORAFENIB],0.2806
9,CC[C@@H]1/C=C(\C)C[C@H](C)C[C@H](OC)[C@H]2O[C@@](O)(C(=O)C(=O)N3CCCC[C@H]3C(=O)O[C@H](/C(C)=C/[C@@H]3CC[C@H](Cl)[C@H](OC)C3)[C@H](C)[C@@H](O)CC1=O)[C@H](C)C[C@@H]2OC [PIMECROLIMUS],0.2951
10,CC(C)(C)NCC(O)COc1cccc2c1CCC(=O)N2 (stereo not drawn) [CARTEOLOL],0.1646
11,N[C@@H]1[C@H]2CN(c3nc4c(cc3F)c(=O)c(C(=O)O)cn4-c3ccc(F)cc3F)C[C@@H]12 [TROVAFLOXACIN],0.134
12,CC(C)(C(=O)O)c1ccc(C(O)CCCN2CCC(C(O)(c3ccccc3)c3ccccc3)CC2)cc1 (stereo not drawn) [FEXOFENADINE],0.1118
13,COc1ccc([C@@H]2CC(=O)c3c(O)cc(O[C@@H]4O[C@H](CO[C@@H]5O[C@@H](C)[C@H](O)[C@@H](O)[C@H]5O)[C@@H](O)[C@H](O)[C@H]4O)cc3O2)cc1O [HESPERIDIN],0.0964
14,CC#CC(=O)N1CCC[C@H]1c1nc(-c2ccc(C(=O)Nc3ccccn3)cc2)c2c(N)nccn12 [ACALABRUTINIB],0.1279
15,O=C[C@H](O)[C@@H](O)[C@H](O)CO [XYLOSE],0.1093
16,CO[C@H]1C[C@@H]2CC[C@@H](C)[C@@](O)(O2)C(=O)C(=O)N2CCCC[C@H]2C(=O)O[C@H]([C@H](C)C[C@@H]2CC[C@@H](OC(=O)C(C)(CO)CO)[C@H](OC)C2)CC(=O)[C@H](C)/C=C(\C)[C@@H](O)[C@@H](OC)C(=O)[C@H](C)C[C@H](C)/C=C/C=C/C=C/1C [TEMSIROLIMUS],0.4599
17,C=CC[C@]1(O)CC[C@H]2[C@@H]3CCC4=CC(=O)CCC4=C3C=C[C@@]21C [ALTRENOGEST],0.04669
18,NS(=O)(=O)c1cc(C(=O)O)cc(N2CCCC2)c1Oc1ccccc1 [PIRETANIDE],0.1486
19,CN(C)CCCN1c2ccccc2Sc2ccccc21 [PROMAZINE],0.07876
20,O=C(OCCO)c1ccccc1O,0.157
21,Cc1cc(C(C)(C)C)c(O)c(C)c1CC1=NCCN1 [OXYMETAZOLINE],0.2228
22,CC(C)(C)C(=O)Oc1ccc(S(=O)(=O)Nc2ccccc2C(=O)NCC(=O)O)cc1,0.1753
23,CC(C(=O)O)c1ccc2c(c1)Cc1cccnc1O2 (stereo not drawn) [PRANOPROFEN],0.2215

# An excerpt from above in order of number of heavy atoms, low to high:
row,SMILES,Hit score
23,CC(C(=O)O)c1ccc2c(c1)Cc1cccnc1O2 (stereo not drawn) [PRANOPROFEN],0.2215
19,CN(C)CCCN1c2ccccc2Sc2ccccc21 [PROMAZINE],0.07876
6,O=C(O)c1cc(/N=N/c2ccc(O)c(C(=O)O)c2)ccc1O [OLSALAZINE],0.0313
22,CC(C)(C)C(=O)Oc1ccc(S(=O)(=O)Nc2ccccc2C(=O)NCC(=O)O)cc1,0.1753

# The results go on.

row,SMILES,Hit score
1,C[C@H]1COc2c(C3(N)CC3)c(F)cc3c(=O)c(C(=O)O)cn1c23 [PAZUFLOXACIN],0.1099
2,OC[C@H]1NC[C@H](O)[C@@H](O)[C@H]1O,0.1151
3,C[C@@]12CCc3occc3[C@H]1CC[C@@]13C[C@@H](CC[C@H]12)[C@@](O)(CO)C3 [CAFESTOL],0.168
4,COC(=O)C1=C(C)NC(C)=C(C(=O)OCCN2CCN(C(c3ccccc3)c3ccccc3)CC2)C1c1cccc([N+](=O)[O-])c1 (stereo not drawn) [MANIDIPINE 6300],0.142
5,COC(c1ccccc1)(c1ccccc1)[C@H](Oc1nc(C)cc(C)n1)C(=O)O [AMBRISENTAN],0.06687
6,O=C(NO)c1ccc(O)c(O)c1,0.1979
7,Cc1ccccc1-c1cc(N2CCN(C)CC2)ncc1N(C)C(=O)C(C)(C)c1cc(C(F)(F)F)cc(C(F)(F)F)c1 [NETUPITANT],0.1649
8,NCCNCCNCCNCCN,0.008276
9,CC(C)OC(=O)[C@H](C)N[P@](=O)(OC[C@H]1O[C@@H](n2ccc(=O)[nH]c2=O)[C@](C)(F)[C@@H]1O)Oc1ccccc1 [SOFOSBUVIR],0.2045
10,CC(C)CN(C[C@@H](O)[C@H](Cc1ccccc1)NC(=O)O[C@H]1CO[C@H]2OCC[C@H]21)S(=O)(=O)c1ccc(N)cc1,0.38
11,Oc1cccc2cccnc12 [OXYQUINOLINE],0.1471
12,Cc1cc2c(cc1S(N)(=O)=O)S(=O)(=O)CCC2,0.2902
13,CC(C)c1ccc2oc3nc(N)c(C(=O)O)cc3c(=O)c2c1 [AMLEXANOX],0.03856
14,COC(=O)Nc1nc2cc(C(=O)c3ccccc3)ccc2[nH]1 [MEBENDAZOLE],0.2334
15,CCOC(=O)[C@H](CCc1ccccc1)N[C@@H](C)C(=O)N1Cc2ccccc2C[C@H]1C(=O)O,0.1
16,C#C[C@]1(O)CC[C@H]2[C@@H]3CCc4cc(OC5CCCC5)ccc4[C@H]3CC[C@@]21C [QUINESTROL],0.3887
17,Cc1cn([C@H]2O[C@@H](CO)[C@H](O)[C@H]2F)c(=O)[nH]c1=O [CLEVUDINE],0.0509
18,Cc1oncc1C(=O)Nc1ccc(C(F)(F)F)cc1 [LEFLUNOMIDE],0.04922
19,COc1ccc(C(Cl)=C(c2ccc(OC)cc2)c2ccc(OC)cc2)cc1 [CHLOROTRIANISENE],0.1443
20,CC1CC(OC(=O)C(O)c2ccccc2)CC(C)(C)C1 (stereo not drawn) [CYCLANDELATE],0.1398
21,CC(C)(C)C(=O)OCOC(=O)[C@@H]1N2C(=O)[C@@H](/N=C/N3CCCCCC3)[C@H]2SC1(C)C [AMDINOCILLIN PIVOXIL],0.008594
22,O=c1ccc2ccc(OCCCCN3CCN(c4cccc5sccc45)CC3)cc2[nH]1 [BREXPIPRAZOLE],0.1154
23,CN(C)/N=N/c1[nH]cnc1C(N)=O [DACARBAZINE],0.157

row,SMILES,Hit score
1,CC(=O)O[C@H]1C[C@@H]2CC[C@@H]3[C@H](CC[C@@]4(C)[C@H]3C[C@H]([N+]3(C)CCCCC3)[C@@H]4OC(C)=O)[C@@]2(C)C[C@@H]1N1CCCCC1 [VECURONIUM],0.1052
2,CCN(CC)CCCN(c1ccccc1)C1Cc2ccccc2C1.Cl [APRINDINE HYDROCHLORIDE],0.2277
3,Cn1c(NCCN(CCO)CCCc2ccc([N+](=O)[O-])cc2)cc(=O)n(C)c1=O [NIFEKALANT],0.204
4,CC(C)Cc1ccc(C(C)C(=O)NCCO)cc1 (stereo not drawn) [MABUPROFEN],0.24
5,Cc1ccc(Nc2c(F)cccc2Cl)c(CC(=O)O)c1 [LUMIRACOXIB],0.03253
6,CN1CCc2c(c3ccccc3n2Cc2ccccc2)C1 [MEBHYDROLIN],0.1177
7,CCC1C(C)=NN=C(c2ccc(OC)c(OC)c2)c2cc(OC)c(OC)cc21 (stereo not drawn) [TOFISOPAM],0.2037
8,Nc1nc(Cl)nc2c1ncn2[C@H]1C[C@H](O)[C@@H](CO)O1 [CLADRIBINE],0.07801
9,CCC(=O)O[C@@H](O[P@](=O)(CCCCc1ccccc1)CC(=O)N1C[C@H](C2CCCCC2)C[C@H]1C(=O)O)C(C)C [FOSINOPRIL],0.3051
10,Oc1ncnc2[nH]ncc12 [ALLOPURINOL],0.02121
11,C=C1CC[C@H](O)C/C1=C/C=C1\CCC[C@]2(C)[C@@H]([C@H](C)CC[C@@H](O)C(C)(C)O)CC[C@@H]12 [SECALCIFEROL],0.3632
12,CC(C)(C)NCC(O)c1cc(Cl)c(N)c(C(F)(F)F)c1 (stereo not drawn) [MABUTEROL],-0.1589
13,CNCCCC1c2ccccc2C=Cc2ccccc21 [PROTRIPTYLINE],0.03947
14,CCOC(=O)C1=C[C@@H](OC(CC)CC)[C@H](NC(C)=O)[C@@H](N)C1 [OSELTAMIVIR],0.1622
15,O=C(O)CC(O)C(=O)O (stereo not drawn) [MALIC ACID],0.2337
16,C[N+]1(CCCCC[N+]2(C)CCCC2)CCCC1 [PENTOLINIUM],0.06742
17,Cc1onc(-c2ccccc2)c1-c1ccc(S(N)(=O)=O)cc1 [VALDECOXIB],0.2792
18,COc1ccc(CCN(C)CCCC(C#N)(c2ccc(OC)c(OC)c2)C(C)C)cc1OC (stereo not drawn),0.1784
19,CCC(=O)O[C@]1(C(=O)COC(C)=O)CC[C@H]2[C@@H]3C[C@H](C)C4=CC(=O)C=C[C@]4(C)[C@H]3[C@@H](O)C[C@@]21C [METHYLPREDNISOLONE ACEPONATE],0.1295
20,CCCCC(F)(F)[C@@]1(O)CC[C@H]2[C@@H](CC(=O)[C@@H]2CCCCCCC(=O)O)O1 [LUBIPROSTONE],0.08446
21,N#Cc1nn(-c2c(Cl)cc(C(F)(F)F)cc2Cl)c(N)c1[S+]([O-])C(F)(F)F (stereo not drawn) [FIPRONIL],0.1953
22,O=C(O)c1cc(O)c2c3nc4ccccc4oc-3cc(=O)c2n1 [PIRENOXINE],0.3657
